No constants are given. Whether binding was seen depends on the method and setting. For some assays here: Binding seen in cells or lysates may run through a third protein. Some binding calls cover weakened binding; strength is not graded here. For some assays here: Tags and fused reporters may be left off the sequences shown.
What was measured:
[1] = molecular target: Transforming growth factor-β receptor type 2 (TGF-β-R2), endogenous (human (endogenous in HUVECs)) (UniProt P37173); experiment: co-IP
[2] = molecular target: GST-TGF-β-R2 (23–166 amino acids) (UniProt P37173); experiment: pull-down

Sequences of proteins named here, by UniProt entry; tags and fusion partners are left off. A change or cut given only in a name is not applied to a line headed by its entry. Residues count along the entry.
UniProt P37173: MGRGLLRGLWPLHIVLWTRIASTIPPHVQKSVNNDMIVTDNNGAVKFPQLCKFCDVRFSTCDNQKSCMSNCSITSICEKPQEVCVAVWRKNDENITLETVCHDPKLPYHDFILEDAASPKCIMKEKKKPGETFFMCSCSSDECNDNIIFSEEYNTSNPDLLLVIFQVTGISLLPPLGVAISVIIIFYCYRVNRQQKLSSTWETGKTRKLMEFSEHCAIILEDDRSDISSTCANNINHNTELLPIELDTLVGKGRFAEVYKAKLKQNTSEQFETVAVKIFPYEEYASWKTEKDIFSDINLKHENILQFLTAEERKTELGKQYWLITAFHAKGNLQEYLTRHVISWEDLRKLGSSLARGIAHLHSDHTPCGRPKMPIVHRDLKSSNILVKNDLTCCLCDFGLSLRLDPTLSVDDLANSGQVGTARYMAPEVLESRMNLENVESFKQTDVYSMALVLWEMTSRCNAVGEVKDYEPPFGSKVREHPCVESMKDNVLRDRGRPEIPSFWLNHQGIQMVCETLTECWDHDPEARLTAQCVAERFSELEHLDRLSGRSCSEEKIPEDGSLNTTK
Transforming growth factor-β receptor type 2 (TGF-β-R2), endogenous (human (endogenous in HUVECs)): residues 23-567 of P37173
GST-TGF-β-R2 (23–166 amino acids): residues 23-166 of P37173

B1: Heparin-binding protein (HBP) in cell lysate (protein, UniProt P20160 27-251)
chain: IVGGRKARPRQFPFLASIQNQGRHFCGGALIHARFVMTAASCFQSQNPGVSTVVLGAYDLRRRERQSRQTFSISSMSENGYDPQQNLNDLMLLQLDREANLTSSVTILPLPLQNATVEAGTRCQVAGWGSQRSGGRLSRFPRFVNVTVTPEDQCRPNNVCTGVLTRRGGICNGDGGTPLVCEGLAHGVASFSLGPCGRGPDFFTRVALFRDWIDGVLNNPGPGPA
**Q.** For B1, which binding [1] is on record?
**A.** binds

B2: Recombinant human heparin-binding protein (His-HBP) (protein, UniProt P20160 27-251)
chain: IVGGRKARPRQFPFLASIQNQGRHFCGGALIHARFVMTAASCFQSQNPGVSTVVLGAYDLRRRERQSRQTFSISSMSENGYDPQQNLNDLMLLQLDREANLTSSVTILPLPLQNATVEAGTRCQVAGWGSQRSGGRLSRFPRFVNVTVTPEDQCRPNNVCTGVLTRRGGICNGDGGTPLVCEGLAHGVASFSLGPCGRGPDFFTRVALFRDWIDGVLNNPGPGPA
**Q.** With B2 as the binder, how does the binding [2] read?
**A.** binds

— doi:10.1101/2022.01.14.476433
